# Reference: PubChem BioAssay AID256 (DTP/NCI, 2004)
# The list is a part of this screen's results and no random one: it gathers tests that were run many times, whatever their T/C, doses with no T/C, and many T/C values between a quarter and a half above the control. Other doses and runs of a compound stand elsewhere. T/C gives the treated animals as a percentage of the vehicle group. Some doses have a count of surviving animals in place of a T/C: the source holds a T/C of zero for them, seemingly a mark for toxic or unscored doses. Some survivor counts are full or nearly so, which does not show that the dose was tolerated: the source hardly ever lists a survival T/C far under the control, and the zero likely stands for such cases as well. Counts of survivors are from the toxicity check (mostly the fifth day) where no day follows; animals may have died later. Schedules are NCI's codes, read here as Q, the interval in days (D) or hours (H), X, the number of doses. Where survival is the endpoint, this PubChem deposit counts one and a half times the control or more as active, and values a quarter to a half above the control carry no call in these data; other NCI protocols may use other cut-offs. Some doses were run more than once; the values are given in rising order. Brackets with × count equal records among those shown.
# Test system: CD2F1 mice, L1210 leukemia ip, survival T/C
# Experiment: NCI In Vivo Anticancer Drug Screen. Data for tumor model L1210 Leukemia (intraperitoneal) in CD2F1 (CDF1) mice
# Conditions: higher T/C = longer survival
# Procedure, shortened: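 Vehicle-treated tumor-bearing mice served as controls (C) for compound-treated mice (T). Reported figure is T divided by C.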
# [1] = T/C endpoint: mean survival time, dose: 50.0 mg/kg/injection, schedule: Q04DX003 (ip), vehicle: saline
# [2] = T/C endpoint: mean survival time, dose: 200.0 mg/kg/injection, schedule: Q01DX009 (ip), vehicle: Klucel (hydroxypropylcellulose) (HPC)
# [3] = T/C endpoint: mean survival time, dose: 400.0 mg/kg/injection, schedule: Q01DX009 (ip), vehicle: saline with Tween-80
structure (smiles),measurement,setting,value
O=NN(CCCl)C(=S)Nc1ccccc1,survivor count,"T/C endpoint: mean survival time, dose: 400.0 mg/kg/injection, schedule: Q01DX001 (ip), vehicle: other",1 of 6
CCn1c(C)[n+](CC)c2ccc(C(F)(F)F)cc21,survivor count,"T/C endpoint: mean survival time, dose: 300.0 mg/kg/injection, schedule: Q01DX001 (ip), vehicle: saline",0 of 6
N#CSCCN1C(=O)C2C3CCC(O3)C2C1=O (stereo unspecified),survivor count,"T/C endpoint: mean survival time, dose: 50.0 mg/kg/injection, schedule: Q04DX002 (ip), vehicle: saline with Tween-80",0 of 3
same,survivor count,"T/C endpoint: mean survival time, dose: 100.0 mg/kg/injection, schedule: Q04DX002 (ip), vehicle: saline with Tween-80",0 of 3
N=C(N)c1ccc(N=Nc2c(O)ccc3cc(O)ccc23)cc1,survivor count,"T/C endpoint: median survival time, dose: 200.0 mg/kg/injection, schedule: Q01DX005 (ip), vehicle: Klucel (hydroxypropylcellulose) (HPC)",4 of 6
CCCCCC(CN(C)C)C(=O)/C=C/c1c(Cl)cccc1Cl (stereo unspecified),survivor count,"T/C endpoint: mean survival time, dose: 200.0 mg/kg/injection, schedule: Q01DX001 (ip), vehicle: Klucel (hydroxypropylcellulose) (HPC)",1 of 6
same,survivor count,"T/C endpoint: mean survival time, dose: 400.0 mg/kg/injection, schedule: Q01DX001 (ip), vehicle: Klucel (hydroxypropylcellulose) (HPC)",0 of 6
ClCCc1cnc[nH]1,survivor count,"T/C endpoint: mean survival time, dose: 200.0 mg/kg/injection, schedule: Q01DX005 (ip), vehicle: water",0 of 6
same,survivor count,"T/C endpoint: mean survival time, dose: 400.0 mg/kg/injection, schedule: Q01DX005 (ip), vehicle: water",0 of 6
COC1CCC2=C(C1)C(=O)CC1c3ccccc3CN21 (stereo unspecified),survivor count,"T/C endpoint: mean survival time, dose: 200.0 mg/kg/injection, schedule: Q04DX003 (ip), vehicle: saline with Tween-80",1 of 6
same,survivor count,"T/C endpoint: mean survival time, dose: 400.0 mg/kg/injection, schedule: Q04DX003 (ip), vehicle: saline with Tween-80",0 of 6
O=Cc1c(O)c2ccccc2[nH]c1=O,survivor count,"T/C endpoint: mean survival time, dose: 200.0 mg/kg/injection, schedule: Q01DX009 (ip), vehicle: saline with Tween-80",2 of 6
same,survivor count,"T/C endpoint: median survival time, dose: 200.0 mg/kg/injection, schedule: Q01DX009 (ip), vehicle: Klucel (hydroxypropylcellulose) (HPC)",0 of 6
COC1OC(CO)C(n2cnc3c2c(=O)n(C)c(=O)n3C)C=C1NC(C)=O (stereo unspecified),survivor count,"T/C endpoint: mean survival time, dose: 50.0 mg/kg/injection, schedule: Q01DX005 (ip), vehicle: distilled water + Tween-80",3 of 3
Nc1ccc(NC(=S)Nc2ccc(N)cc2)cc1,survivor count,"T/C endpoint: mean survival time, dose: 100.0 mg/kg/injection, schedule: Q04DX003 (ip), vehicle: Klucel (hydroxypropylcellulose) (HPC)",5 of 6
same,survivor count,"T/C endpoint: mean survival time, dose: 200.0 mg/kg/injection, schedule: Q04DX003 (ip), vehicle: Klucel (hydroxypropylcellulose) (HPC)",4 of 6
same,survivor count,"T/C endpoint: mean survival time, dose: 400.0 mg/kg/injection, schedule: Q04DX003 (ip), vehicle: Klucel (hydroxypropylcellulose) (HPC)",1 of 6
N#CCCN=C1C=CC(=C(c2ccc(NCCC#N)cc2)c2ccc(Cl)cc2Cl)C=C1,survivor count,"T/C endpoint: mean survival time, dose: 200.0 mg/kg/injection, schedule: Q04DX002 (ip), vehicle: saline with Tween-80",1 of 3
same,survivor count,"T/C endpoint: mean survival time, dose: 400.0 mg/kg/injection, schedule: Q04DX002 (ip), vehicle: saline with Tween-80",0 of 3
CC(=O)Oc1ccc2ncccc2c1Cc1c(OC(C)=O)ccc2ncccc12,survivor count,"T/C endpoint: mean survival time, dose: 150.0 mg/kg/injection, schedule: Q01DX001 (ip), vehicle: saline",6 of 6
CCOP(=O)(NCCCSC)OCC,survivor count,"T/C endpoint: mean survival time, dose: 100.0 mg/kg/injection, schedule: Q01DX001 (ip), vehicle: saline with Tween-80",0 of 6
same,survivor count,"T/C endpoint: mean survival time, dose: 200.0 mg/kg/injection, schedule: Q01DX001 (ip), vehicle: saline with Tween-80",0 of 6
same,survivor count,"T/C endpoint: mean survival time, dose: 400.0 mg/kg/injection, schedule: Q01DX001 (ip), vehicle: saline with Tween-80",0 of 6
c1ccc2c[n+]3ccccc3cc2c1,survivor count,[1],3 of 6
CC(=O)Oc1ccc([N+](=O)[O-])cc1[N+](=O)[O-],survivor count,"T/C endpoint: mean survival time, dose: 50.0 mg/kg/injection, schedule: Q04DX002 (ip), vehicle: Klucel (hydroxypropylcellulose) (HPC)",0 of 3
same,survivor count,"T/C endpoint: mean survival time, dose: 100.0 mg/kg/injection, schedule: Q04DX002 (ip), vehicle: Klucel (hydroxypropylcellulose) (HPC)",0 of 3
same,survivor count,"T/C endpoint: mean survival time, dose: 200.0 mg/kg/injection, schedule: Q04DX002 (ip), vehicle: Klucel (hydroxypropylcellulose) (HPC)",0 of 3
same,survivor count,"T/C endpoint: mean survival time, dose: 400.0 mg/kg/injection, schedule: Q04DX002 (ip), vehicle: Klucel (hydroxypropylcellulose) (HPC)",0 of 3
O=C(O)c1cc(=O)cc(C(=O)O)o1,survivor count,[2],2 of 3
COc1ccc(-c2c(COC(C)=O)c(COC(C)=O)c3n2CCC3)cc1,survivor count,"T/C endpoint: mean survival time, dose: 50.0 mg/kg/injection, schedule: Q01DX009 (ip), vehicle: Klucel (hydroxypropylcellulose) (HPC)",6 of 6
same,survivor count,"T/C endpoint: mean survival time, dose: 100.0 mg/kg/injection, schedule: Q01DX009 (ip), vehicle: Klucel (hydroxypropylcellulose) (HPC)",4 of 6
same,survivor count,[2],2 of 6
same,survivor count,"T/C endpoint: mean survival time, dose: 400.0 mg/kg/injection, schedule: Q01DX009 (ip), vehicle: Klucel (hydroxypropylcellulose) (HPC)",0 of 6
O=[N+]([O-])c1cccc(C[n+]2ccccc2C2OCCO2)c1,survivor count,[1],6 of 6
same,survivor count,"T/C endpoint: mean survival time, dose: 100.0 mg/kg/injection, schedule: Q04DX003 (ip), vehicle: saline",2 of 6
same,survivor count,"T/C endpoint: mean survival time, dose: 200.0 mg/kg/injection, schedule: Q04DX003 (ip), vehicle: saline",0 of 6
same,survivor count,"T/C endpoint: mean survival time, dose: 400.0 mg/kg/injection, schedule: Q04DX003 (ip), vehicle: saline",0 of 6
O=C(CCBr)c1ccc(Cl)cc1,survivor count,"T/C endpoint: mean survival time, dose: 200.0 mg/kg/injection, schedule: Q01DX009 (ip), vehicle: saline sonified",0 of 6
same,survivor count,"T/C endpoint: mean survival time, dose: 400.0 mg/kg/injection, schedule: Q01DX009 (ip), vehicle: saline sonified",0 of 6
c1ccc(CCSc2ncnc3nc[nH]c23)cc1,T/C,"T/C endpoint: mean survival time, dose: 62.5 mg/kg/injection, schedule: Q01DX009 (ip), vehicle: saline","98, 101 (2×), 103 % of control"
same,T/C,"T/C endpoint: mean survival time, dose: 125.0 mg/kg/injection, schedule: Q01DX009 (ip), vehicle: saline","102, 104, 112, 113 % of control"
same,T/C,"T/C endpoint: mean survival time, dose: 250.0 mg/kg/injection, schedule: Q01DX009 (ip), vehicle: saline","108, 118, 122, 130 % of control"
same,T/C,"T/C endpoint: mean survival time, dose: 500.0 mg/kg/injection, schedule: Q01DX009 (ip), vehicle: saline","122, 134, 163 % of control (2×)"
Oc1c(C(c2ccccc2)N2CCCCC2)ccc2ccccc12 (stereo unspecified),survivor count,[3],2 of 6
CCCCCCCCCCCCCCCC(=O)N(CCC#N)CCC#N,survivor count,"T/C endpoint: mean survival time, dose: 100.0 mg/kg/injection, schedule: Q01DX009 (ip), vehicle: saline with Tween-80",3 of 6
same,survivor count,[3],2 of 6
Nc1nc(F)nc2c1ncn2C1OC(COC=O)C(OC=O)C1O (stereo unspecified) (tested in a mixture with another compound),T/C,"T/C endpoint: mean survival time, dose: 150.0 mg/kg/injection, schedule: Q01DX005 (ip), vehicle: saline with Tween-80",140 % of control
same,survivor count,"T/C endpoint: mean survival time, dose: 225.0 mg/kg/injection, schedule: Q01DX009 (ip), vehicle: saline with Tween-80",2 of 2
CCCSc1ncnc2nc[nH]c12,survivor count,"T/C endpoint: median survival time, dose: 250.0 mg/kg/injection, schedule: Q01DX009 (ip), vehicle: saline",2 of 6
CC[C@@]1(O)C(=O)OCc2c1cc1n(c2=O)Cc2cc3cc(O)ccc3nc2-1,T/C,"T/C endpoint: mean survival time, dose: 1.0 mg/kg/injection, schedule: Q04DX003 (ip), vehicle: other",133 % of control
same,T/C,"T/C endpoint: mean survival time, dose: 8.0 mg/kg/injection, schedule: Q04DX003 (ip), vehicle: other",146 % of control
same,survivor count,"T/C endpoint: mean survival time, dose: 25.0 mg/kg/injection, schedule: Q04DX003 (ip), vehicle: water",6 of 6
same,survivor count,"T/C endpoint: mean survival time, dose: 50.0 mg/kg/injection, schedule: Q04DX003 (ip), vehicle: water",4 of 6
same,survivor count,"T/C endpoint: mean survival time, dose: 100.0 mg/kg/injection, schedule: Q04DX003 (ip), vehicle: water",1 of 6
same,survivor count,"T/C endpoint: mean survival time, dose: 200.0 mg/kg/injection, schedule: Q04DX003 (ip), vehicle: water",0 of 6
same,T/C,"T/C endpoint: median survival time, dose: 1.5 mg/kg/injection, schedule: Q04DX002 (ip), vehicle: saline",135 and 142 % of control
same,T/C,"T/C endpoint: median survival time, dose: 3.0 mg/kg/injection, schedule: Q04DX002 (ip), vehicle: saline","146 (3×), 153, 155, 183 % of control"
same,T/C,"T/C endpoint: median survival time, dose: 6.0 mg/kg/injection, schedule: Q04DX002 (ip), vehicle: saline","135, 146, 162, 170 (2×), 183 % of control"
same,T/C,"T/C endpoint: median survival time, dose: 12.0 mg/kg/injection, schedule: Q04DX002 (ip), vehicle: saline","164, 170, 177, 180, 183, 333 % of control"
same,T/C,"T/C endpoint: median survival time, dose: 24.0 mg/kg/injection, schedule: Q04DX002 (ip), vehicle: saline","147, 170, 174, 200, 230, 264 % of control"
same,T/C,"T/C endpoint: median survival time, dose: 24.0 mg/kg/injection, schedule: Q04DX002 (ip), vehicle: suspension in saline",125 % of control
